Source: the supplement of paper PMC12819154, “High-throughput peptide-centric local stability assay extends protein–ligand identification to membrane proteins, tissues and bacteria” (Nature Structural & Molecular Biology, 2025)
The other results are listed elsewhere or left out. Most entries show no effect beyond the scatter of the controls.

Amino acid sequences for entries named in this document (tags omitted). A change or cut given only in a name is not applied to a line headed by its entry.
UniProt Q9EPS3: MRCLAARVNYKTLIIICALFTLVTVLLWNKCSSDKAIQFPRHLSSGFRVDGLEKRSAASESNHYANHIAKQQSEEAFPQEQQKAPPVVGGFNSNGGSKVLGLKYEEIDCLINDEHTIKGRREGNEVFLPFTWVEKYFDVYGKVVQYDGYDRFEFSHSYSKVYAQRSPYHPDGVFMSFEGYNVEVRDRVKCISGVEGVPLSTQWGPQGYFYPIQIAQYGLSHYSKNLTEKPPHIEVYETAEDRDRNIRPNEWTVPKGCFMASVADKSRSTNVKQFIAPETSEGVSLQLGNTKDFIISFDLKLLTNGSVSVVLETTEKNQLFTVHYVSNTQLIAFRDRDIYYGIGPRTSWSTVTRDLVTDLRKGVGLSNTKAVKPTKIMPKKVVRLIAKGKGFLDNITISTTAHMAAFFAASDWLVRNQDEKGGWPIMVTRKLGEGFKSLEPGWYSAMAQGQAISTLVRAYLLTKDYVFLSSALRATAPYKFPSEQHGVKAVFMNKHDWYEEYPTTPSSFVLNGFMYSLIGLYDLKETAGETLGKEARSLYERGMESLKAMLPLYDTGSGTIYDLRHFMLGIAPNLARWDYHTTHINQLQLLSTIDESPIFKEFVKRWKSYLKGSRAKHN
UniProt Q9ERB0: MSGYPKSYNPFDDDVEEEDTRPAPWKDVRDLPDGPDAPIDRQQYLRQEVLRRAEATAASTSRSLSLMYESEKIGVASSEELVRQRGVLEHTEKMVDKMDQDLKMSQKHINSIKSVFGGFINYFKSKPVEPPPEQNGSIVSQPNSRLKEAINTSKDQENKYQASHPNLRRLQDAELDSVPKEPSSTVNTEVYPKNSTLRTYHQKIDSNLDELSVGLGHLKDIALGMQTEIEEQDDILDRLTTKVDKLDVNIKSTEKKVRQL
UniProt Q9DCX2: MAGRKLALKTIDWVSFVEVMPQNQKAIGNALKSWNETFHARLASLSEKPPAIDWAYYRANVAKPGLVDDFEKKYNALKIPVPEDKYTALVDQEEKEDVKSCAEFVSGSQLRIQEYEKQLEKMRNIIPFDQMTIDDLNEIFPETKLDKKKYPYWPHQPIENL
UniProt Q9DCJ5: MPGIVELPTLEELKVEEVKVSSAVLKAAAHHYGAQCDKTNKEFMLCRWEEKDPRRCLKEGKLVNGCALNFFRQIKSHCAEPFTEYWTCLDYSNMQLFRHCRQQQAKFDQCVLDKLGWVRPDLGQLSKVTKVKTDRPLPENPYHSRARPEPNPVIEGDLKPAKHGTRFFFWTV
UniProt Q9DBK0: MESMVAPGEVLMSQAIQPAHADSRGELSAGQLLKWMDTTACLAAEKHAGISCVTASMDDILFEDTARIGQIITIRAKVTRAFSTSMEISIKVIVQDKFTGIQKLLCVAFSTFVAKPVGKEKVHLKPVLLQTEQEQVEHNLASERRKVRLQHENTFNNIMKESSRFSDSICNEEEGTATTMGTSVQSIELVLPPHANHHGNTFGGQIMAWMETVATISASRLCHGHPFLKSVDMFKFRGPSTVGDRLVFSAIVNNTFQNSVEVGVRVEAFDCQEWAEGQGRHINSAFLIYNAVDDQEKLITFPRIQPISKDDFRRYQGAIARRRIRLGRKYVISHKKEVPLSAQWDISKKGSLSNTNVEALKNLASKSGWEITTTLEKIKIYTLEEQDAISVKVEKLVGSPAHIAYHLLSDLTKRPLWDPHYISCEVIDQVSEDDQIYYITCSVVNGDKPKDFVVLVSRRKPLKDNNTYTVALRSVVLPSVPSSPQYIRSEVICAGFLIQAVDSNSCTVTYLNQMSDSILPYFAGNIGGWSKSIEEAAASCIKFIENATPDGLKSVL
UniProt Q9EPB5: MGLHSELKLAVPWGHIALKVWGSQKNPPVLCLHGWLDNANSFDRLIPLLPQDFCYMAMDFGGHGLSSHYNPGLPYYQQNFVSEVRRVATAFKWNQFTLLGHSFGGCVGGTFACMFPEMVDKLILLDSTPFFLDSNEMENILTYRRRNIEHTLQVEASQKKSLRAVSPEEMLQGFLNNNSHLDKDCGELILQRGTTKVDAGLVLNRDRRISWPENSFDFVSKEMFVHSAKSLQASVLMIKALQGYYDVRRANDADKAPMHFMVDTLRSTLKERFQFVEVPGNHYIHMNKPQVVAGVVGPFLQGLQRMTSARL
UniProt Q9DCV7: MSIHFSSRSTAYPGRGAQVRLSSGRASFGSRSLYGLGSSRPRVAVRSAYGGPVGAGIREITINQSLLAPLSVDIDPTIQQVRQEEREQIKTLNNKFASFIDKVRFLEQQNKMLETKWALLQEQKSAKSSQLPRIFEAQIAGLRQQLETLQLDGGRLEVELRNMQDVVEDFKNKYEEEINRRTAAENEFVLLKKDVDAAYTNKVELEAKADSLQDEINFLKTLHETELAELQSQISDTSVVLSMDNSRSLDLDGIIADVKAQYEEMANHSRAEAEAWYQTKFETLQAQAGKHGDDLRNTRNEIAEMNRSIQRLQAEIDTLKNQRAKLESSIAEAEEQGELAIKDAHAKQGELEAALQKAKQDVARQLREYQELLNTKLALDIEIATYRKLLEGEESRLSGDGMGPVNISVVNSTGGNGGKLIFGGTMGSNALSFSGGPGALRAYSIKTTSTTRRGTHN
UniProt Q9DD20: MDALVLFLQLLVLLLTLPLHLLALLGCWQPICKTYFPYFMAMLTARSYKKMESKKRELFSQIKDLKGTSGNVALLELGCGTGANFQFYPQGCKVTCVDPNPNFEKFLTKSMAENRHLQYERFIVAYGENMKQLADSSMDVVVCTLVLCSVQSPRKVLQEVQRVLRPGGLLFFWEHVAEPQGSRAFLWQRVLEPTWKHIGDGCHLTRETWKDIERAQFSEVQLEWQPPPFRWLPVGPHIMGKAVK
UniProt Q9ERL7, whole entry: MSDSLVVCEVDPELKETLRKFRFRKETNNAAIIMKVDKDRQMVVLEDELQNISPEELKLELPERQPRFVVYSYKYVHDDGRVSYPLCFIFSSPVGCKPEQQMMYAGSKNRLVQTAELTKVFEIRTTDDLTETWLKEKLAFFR
UniProt Q9EP69: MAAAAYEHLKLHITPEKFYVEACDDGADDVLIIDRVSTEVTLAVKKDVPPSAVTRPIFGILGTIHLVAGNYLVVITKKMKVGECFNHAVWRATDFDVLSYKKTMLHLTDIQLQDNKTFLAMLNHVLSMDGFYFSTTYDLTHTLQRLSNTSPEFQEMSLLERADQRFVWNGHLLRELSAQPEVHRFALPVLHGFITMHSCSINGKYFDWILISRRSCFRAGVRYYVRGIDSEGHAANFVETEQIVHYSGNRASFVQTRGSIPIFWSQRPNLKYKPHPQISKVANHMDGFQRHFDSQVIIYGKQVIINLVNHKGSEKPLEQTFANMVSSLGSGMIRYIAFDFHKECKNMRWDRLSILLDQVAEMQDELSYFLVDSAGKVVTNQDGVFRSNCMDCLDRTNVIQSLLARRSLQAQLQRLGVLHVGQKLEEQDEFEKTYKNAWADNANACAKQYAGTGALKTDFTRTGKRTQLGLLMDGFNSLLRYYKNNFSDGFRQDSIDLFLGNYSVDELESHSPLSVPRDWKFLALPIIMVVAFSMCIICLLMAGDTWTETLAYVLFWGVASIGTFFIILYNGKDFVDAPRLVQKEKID
UniProt Q9EQ00: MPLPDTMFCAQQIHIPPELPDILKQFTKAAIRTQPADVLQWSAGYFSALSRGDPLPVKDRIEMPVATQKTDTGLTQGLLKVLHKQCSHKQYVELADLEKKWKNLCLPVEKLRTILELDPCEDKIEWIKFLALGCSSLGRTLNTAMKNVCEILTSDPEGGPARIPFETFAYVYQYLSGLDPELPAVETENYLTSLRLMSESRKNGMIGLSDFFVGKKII
UniProt Q9EPU4: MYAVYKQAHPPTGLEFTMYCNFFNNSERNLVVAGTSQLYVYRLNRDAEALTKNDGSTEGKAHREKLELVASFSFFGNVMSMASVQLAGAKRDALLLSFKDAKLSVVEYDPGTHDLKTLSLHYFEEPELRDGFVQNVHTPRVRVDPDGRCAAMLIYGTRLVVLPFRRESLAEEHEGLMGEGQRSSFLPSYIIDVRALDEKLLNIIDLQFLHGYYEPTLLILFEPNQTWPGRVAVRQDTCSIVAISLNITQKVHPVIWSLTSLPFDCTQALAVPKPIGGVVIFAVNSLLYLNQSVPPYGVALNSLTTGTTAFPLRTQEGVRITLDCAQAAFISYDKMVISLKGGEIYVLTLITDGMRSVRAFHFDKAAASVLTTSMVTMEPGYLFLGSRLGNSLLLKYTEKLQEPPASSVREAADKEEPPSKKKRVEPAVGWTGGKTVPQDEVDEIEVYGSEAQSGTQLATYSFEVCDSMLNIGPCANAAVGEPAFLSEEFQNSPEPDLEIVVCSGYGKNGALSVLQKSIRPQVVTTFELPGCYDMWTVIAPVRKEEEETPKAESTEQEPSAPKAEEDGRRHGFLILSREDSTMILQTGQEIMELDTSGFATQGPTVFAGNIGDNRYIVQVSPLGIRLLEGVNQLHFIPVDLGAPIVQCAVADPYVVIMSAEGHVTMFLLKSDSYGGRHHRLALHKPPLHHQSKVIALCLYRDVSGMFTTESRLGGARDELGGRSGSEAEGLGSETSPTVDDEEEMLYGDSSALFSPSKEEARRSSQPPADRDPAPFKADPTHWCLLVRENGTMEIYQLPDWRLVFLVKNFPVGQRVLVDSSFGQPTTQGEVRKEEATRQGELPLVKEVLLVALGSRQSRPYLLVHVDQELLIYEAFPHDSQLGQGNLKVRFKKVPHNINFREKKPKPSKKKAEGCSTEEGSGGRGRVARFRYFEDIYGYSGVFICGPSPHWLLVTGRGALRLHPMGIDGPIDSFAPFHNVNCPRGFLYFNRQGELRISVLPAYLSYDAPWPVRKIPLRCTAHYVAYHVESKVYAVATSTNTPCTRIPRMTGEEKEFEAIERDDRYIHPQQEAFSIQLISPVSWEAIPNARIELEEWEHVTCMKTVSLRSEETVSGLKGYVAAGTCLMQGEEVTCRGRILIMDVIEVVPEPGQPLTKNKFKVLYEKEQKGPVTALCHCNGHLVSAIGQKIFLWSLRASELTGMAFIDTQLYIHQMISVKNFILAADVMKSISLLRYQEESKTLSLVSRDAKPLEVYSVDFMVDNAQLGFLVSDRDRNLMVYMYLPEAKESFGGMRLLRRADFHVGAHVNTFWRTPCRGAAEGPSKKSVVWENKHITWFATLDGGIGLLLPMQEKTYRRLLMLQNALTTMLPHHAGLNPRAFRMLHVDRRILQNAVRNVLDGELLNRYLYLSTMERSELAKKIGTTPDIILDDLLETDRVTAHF
UniProt Q9DB94: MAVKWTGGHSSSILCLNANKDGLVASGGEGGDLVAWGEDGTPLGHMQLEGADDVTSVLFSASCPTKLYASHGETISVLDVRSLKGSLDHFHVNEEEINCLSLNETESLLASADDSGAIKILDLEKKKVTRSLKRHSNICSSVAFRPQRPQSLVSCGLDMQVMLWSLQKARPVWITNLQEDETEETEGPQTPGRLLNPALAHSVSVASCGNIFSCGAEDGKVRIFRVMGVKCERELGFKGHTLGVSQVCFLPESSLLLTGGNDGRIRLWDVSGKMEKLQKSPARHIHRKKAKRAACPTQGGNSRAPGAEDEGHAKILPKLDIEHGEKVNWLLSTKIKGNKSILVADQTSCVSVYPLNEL
UniProt Q9EPL9: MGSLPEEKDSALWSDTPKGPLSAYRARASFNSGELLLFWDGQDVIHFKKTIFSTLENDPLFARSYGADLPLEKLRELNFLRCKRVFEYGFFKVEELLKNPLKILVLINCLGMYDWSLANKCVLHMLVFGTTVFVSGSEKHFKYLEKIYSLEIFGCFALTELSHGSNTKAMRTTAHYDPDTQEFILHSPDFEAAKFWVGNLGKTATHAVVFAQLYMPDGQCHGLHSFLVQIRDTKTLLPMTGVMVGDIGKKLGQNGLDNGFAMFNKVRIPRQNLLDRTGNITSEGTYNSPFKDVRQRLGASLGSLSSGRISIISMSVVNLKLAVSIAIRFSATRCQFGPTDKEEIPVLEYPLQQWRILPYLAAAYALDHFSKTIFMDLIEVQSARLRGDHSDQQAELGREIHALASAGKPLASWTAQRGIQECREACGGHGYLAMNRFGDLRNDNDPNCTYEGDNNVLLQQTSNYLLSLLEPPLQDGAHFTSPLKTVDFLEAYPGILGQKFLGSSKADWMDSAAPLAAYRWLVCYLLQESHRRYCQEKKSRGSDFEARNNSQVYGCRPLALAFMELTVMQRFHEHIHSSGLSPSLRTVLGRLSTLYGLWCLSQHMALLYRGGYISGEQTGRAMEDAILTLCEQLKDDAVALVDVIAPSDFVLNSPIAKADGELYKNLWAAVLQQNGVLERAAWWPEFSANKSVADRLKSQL
UniProt Q9EPA7, whole entry: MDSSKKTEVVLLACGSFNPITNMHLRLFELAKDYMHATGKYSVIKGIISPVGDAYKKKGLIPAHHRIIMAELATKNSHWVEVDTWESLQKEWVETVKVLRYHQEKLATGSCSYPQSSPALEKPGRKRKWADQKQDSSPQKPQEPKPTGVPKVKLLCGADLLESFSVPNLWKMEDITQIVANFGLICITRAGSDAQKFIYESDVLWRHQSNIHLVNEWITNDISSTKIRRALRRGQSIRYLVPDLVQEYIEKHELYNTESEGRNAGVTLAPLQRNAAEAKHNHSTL

These targets were tested with CN[C@@H]1C[C@H]2O[C@@](C)([C@@H]1OC)n1c3ccccc3c3c4c(c5c6ccccc6n2c5c31)C(=O)NC4 [staurosporine] (assay: log2 fold change of tryptic peptide abundance, ligand vs vehicle (limited proteolysis) (log2 ratio); higher = more trypsin-susceptible (destabilized)). Conditions: ligand concentration: 20 uM; sample: mouse liver crude lysate; replicate design: treated separately.

| Target | log2 fold change |
| --- | --- |
| UniProt Q9EPS3 (peptide sequence: SAASESNHYANHIAK, peptide start residue: 56) | 0.162 |
| UniProt Q9ERB0 (peptide sequence: GVLEHTEK, peptide start residue: 86) | -0.189 |
| UniProt Q9DAP0 (peptide sequence: DLEQELHQHQER, peptide start residue: 208) | -0.238 |
| UniProt Q9DBU3 (peptide sequence: EYDAQLR, peptide start residue: 91) | 0.208 |
| UniProt Q9DCX2 (peptide sequence: ANVAKPGLVDDFEK, peptide start residue: 59) | -0.318 |
| UniProt Q9ER39 (peptide sequence: KPLTLSLHGWTGTGK, peptide start residue: 95) | -0.202 |
| UniProt Q9DBM0 (peptide sequence: DKRVEDVIAELR, peptide start residue: 186) | -0.726 |
| UniProt Q9DBP5 (peptide sequence: IVEKYGYTHLSAGELLR, peptide start residue: 23) | -0.3 |
| UniProt Q9DCJ5 (peptide sequence: LGWVRPDLGQLSK, peptide start residue: 115) | 0.327 |
| UniProt Q9DBK0 (peptide sequence: SGWEITTTLEK, peptide start residue: 367) | -0.772 |
| UniProt Q9DCF9 (peptide sequence: KLSEADNR, peptide start residue: 103) | 0.0851 |
| UniProt Q9EQ80 (peptide sequence: KADFILSYHPPIFRPMK, peptide start residue: 84) | 0.345 |
| UniProt Q9EPB5 (peptide sequence: NIEHTLQVEASQK, peptide start residue: 147) | 0.34 |
| UniProt Q9DCV7 (peptide sequence: AEAEAWYQTK, peptide start residue: 271) | 0.162 |
| UniProt Q9DD20 (peptide sequence: VTCVDPNPNFEKFLTK, peptide start residue: 94) | 0.37 |
| UniProt Q9ERL7 (peptide sequence: TTDDLTETWLK, peptide start residue: 125) | -0.321 |

| Target | log2 fold change |
| --- | --- |
| UniProt Q9ER00 (peptide sequence: AAYYQKK, peptide start residue: 240) | 0.817 |
| UniProt Q9DAU1 (peptide sequence: LIEVTETICKRLLDYSLHK, peptide start residue: 96) | -0.21 |
| UniProt Q9EP69 (peptide sequence: YFDWILISRR, peptide start residue: 205) | 0.485 |
| UniProt Q9DCD2 (peptide sequence: AIEVLSDEHAR, peptide start residue: 655) | 0.296 |
| UniProt Q9EQ00 (peptide sequence: TDTGLTQGLLK, peptide start residue: 70) | -0.674 |
| UniProt Q9EPU4 (peptide sequence: IELEEWEHVTCMK, peptide start residue: 1090) | -0.486 |
| UniProt Q9DC50 (peptide sequence: YLESVKPFANEDEYKK, peptide start residue: 35) | -0.699 |
| UniProt Q9DB94 (peptide sequence: LDIEHGEK, peptide start residue: 319) | -0.264 |
| UniProt Q9ERS4 (peptide sequence: EISETSESLK, peptide start residue: 105) | -0.211 |
| UniProt Q9ER88 (peptide sequence: ELLQSTHNK, peptide start residue: 160) | -0.287 |
| UniProt Q9DCT6 (peptide sequence: FGDDLNHISCVIKER, peptide start residue: 57) | 0.404 |
| UniProt Q9ERA0 (peptide sequence: LFTNFSGADLLK, peptide start residue: 348) | 0.29 |
| UniProt Q9EPL9 (peptide sequence: SYGADLPLEK, peptide start residue: 64) | -0.459 |
| UniProt Q9EPA7 (peptide sequence: QDSSPQKPQEPK, peptide start residue: 134) | 0.306 |
| UniProt Q9DCL9 (peptide sequence: EVTPEGLQMVKK, peptide start residue: 236) | 0.124 |

Exported as tab-separated lines: entries from further up.
Target	log2 fold change
UniProt Q9EPU4 (peptide sequence: IELEEWEHVTCMK, peptide start residue: 1090)	-0.486
UniProt Q9DC50 (peptide sequence: YLESVKPFANEDEYKK, peptide start residue: 35)	-0.699
UniProt Q9ER88 (peptide sequence: ELLQSTHNK, peptide start residue: 160)	-0.287
UniProt Q9ERA0 (peptide sequence: LFTNFSGADLLK, peptide start residue: 348)	0.29
UniProt Q9EPL9 (peptide sequence: SYGADLPLEK, peptide start residue: 64)	-0.459
UniProt Q9EPA7 (peptide sequence: QDSSPQKPQEPK, peptide start residue: 134)	0.306
